Laboratory results as given in patent publication US20180313836A1.
No constants are given. Whether binding was seen depends on the method and setting. For part of these data: A result given as binding can be weak or reduced; the word gives no strength. Tags and fused reporters may be left off the sequences shown. For part of these data: Binding seen in cells or lysates may run through a third protein.

Tests used:
[1] = target: T1, Recombinant rat Nrp1-Fc extracellular domain-Fc chimera (R&D systems) (rat) (UniProt Q9QWJ9); test: in vitro pull-down, Nrp1-Fc on Protein G beads, anti-GlyRS blot
T1 sequence (looked up): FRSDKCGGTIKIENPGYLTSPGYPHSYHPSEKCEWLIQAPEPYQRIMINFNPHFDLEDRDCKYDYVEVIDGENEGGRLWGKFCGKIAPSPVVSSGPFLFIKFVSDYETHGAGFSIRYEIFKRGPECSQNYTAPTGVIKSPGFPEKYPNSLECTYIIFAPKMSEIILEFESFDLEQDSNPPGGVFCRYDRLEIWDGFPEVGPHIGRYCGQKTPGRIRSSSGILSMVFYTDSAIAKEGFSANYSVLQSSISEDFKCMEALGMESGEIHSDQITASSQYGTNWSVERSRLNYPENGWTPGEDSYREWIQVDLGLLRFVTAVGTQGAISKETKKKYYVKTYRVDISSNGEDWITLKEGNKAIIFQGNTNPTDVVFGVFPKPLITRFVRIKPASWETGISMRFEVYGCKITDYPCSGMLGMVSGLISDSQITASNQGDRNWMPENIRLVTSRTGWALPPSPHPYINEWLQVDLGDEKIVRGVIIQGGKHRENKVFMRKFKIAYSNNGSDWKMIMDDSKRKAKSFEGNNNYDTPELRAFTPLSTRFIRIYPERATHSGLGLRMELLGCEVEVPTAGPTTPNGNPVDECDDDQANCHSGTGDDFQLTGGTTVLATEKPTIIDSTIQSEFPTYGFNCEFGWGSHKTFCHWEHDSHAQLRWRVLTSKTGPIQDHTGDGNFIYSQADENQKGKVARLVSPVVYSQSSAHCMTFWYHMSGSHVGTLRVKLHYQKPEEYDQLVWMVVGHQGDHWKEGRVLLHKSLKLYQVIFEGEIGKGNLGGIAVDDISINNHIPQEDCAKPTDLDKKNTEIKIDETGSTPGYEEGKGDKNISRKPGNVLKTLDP

[2] = target: T1, Recombinant rat Nrp1-Fc extracellular domain-Fc chimera (R&D systems) (rat); test: in vitro pull-down with the ectodomain of Nrp1 (FIG. 4B)
[3] = target: T2, GST-Nrp1 b1b2 domain (res. Phe273-Glu586) (Homo sapiens (Human)) (UniProt O14786); test: in vitro pull-down, competitor VEGF-A165 (FIGS. 4D-4E)
T2 sequence: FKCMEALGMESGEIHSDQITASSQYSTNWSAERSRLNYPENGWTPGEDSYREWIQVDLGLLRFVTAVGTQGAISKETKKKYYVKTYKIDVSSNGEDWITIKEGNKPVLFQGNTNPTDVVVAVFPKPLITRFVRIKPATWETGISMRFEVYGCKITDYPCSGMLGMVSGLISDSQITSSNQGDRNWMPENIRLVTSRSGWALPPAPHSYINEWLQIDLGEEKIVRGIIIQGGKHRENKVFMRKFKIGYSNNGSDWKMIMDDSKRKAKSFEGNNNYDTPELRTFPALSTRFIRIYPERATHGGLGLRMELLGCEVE

[4] = target: T1, Recombinant rat Nrp1-Fc extracellular domain-Fc chimera (R&D systems) (rat); test: in vitro pull-down, Nrp1-Fc on Protein G beads (FIG. 3A)
[5] = target: T2, GST-Nrp1 b1b2 domain (res. Phe273-Glu586) (Homo sapiens (Human)); test: in vitro pull-down on the Nrp1 b domains: L129P GlyRS 0, 19.3, 64.5, 193, 645 nM against 25 nM VEGF-A165
[6] = target: T3, GST-Nrp1 b1 domain (res. Phe273-Asp428) (Homo sapiens (Human)) (UniProt O14786); test: GST pull-down: GST-Nrp1 domain fusions on GST resin, non-tagged GlyRS, blot GlyRS
T3 sequence: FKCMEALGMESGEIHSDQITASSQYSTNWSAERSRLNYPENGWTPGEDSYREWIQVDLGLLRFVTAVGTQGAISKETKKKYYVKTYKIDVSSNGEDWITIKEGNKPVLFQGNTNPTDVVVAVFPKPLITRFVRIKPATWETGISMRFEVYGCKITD

[7] = target: T2, GST-Nrp1 b1b2 domain (res. Phe273-Glu586) (Homo sapiens (Human)); test: as above

binding [1]	binding [2]	binding [3]	binding [4]	binding [5]	binding [6]	binding [7]	Substance
binds	binds	–	–	–	–	–	human glycyl-tRNA synthetase E71G (E71G GlyRS^CMT2D) (enzyme)
binds	binds	binds	binds	binds	–	–	human glycyl-tRNA synthetase L129P (L129P-GlyRS^CMT2D) (enzyme)
binds	binds	–	–	–	–	–	human glycyl-tRNA synthetase G240R (G240R GlyRS^CMT2D) (enzyme)
binds	–	–	–	–	no binding	no binding	human glycyl-tRNA synthetase, wild type (GlyRS^WT) (enzyme)
